For two substances, binding results are on record in patent US20190144517A1 (SHANGHAI JW INFLINHIX, published 2019).

Sequences of proteins named here, by UniProt entry; tags and fusion partners are left off. A change or cut given only in a name is not applied to a line headed by its entry.
UniProt P01375: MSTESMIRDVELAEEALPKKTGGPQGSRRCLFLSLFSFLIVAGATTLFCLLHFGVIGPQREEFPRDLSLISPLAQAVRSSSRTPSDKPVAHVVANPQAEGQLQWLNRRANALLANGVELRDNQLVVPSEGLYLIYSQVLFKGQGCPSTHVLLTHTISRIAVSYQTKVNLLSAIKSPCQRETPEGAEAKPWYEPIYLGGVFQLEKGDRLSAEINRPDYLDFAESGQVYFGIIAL

These are yes or no findings as the source states them, for the method shown. Some entries that bind do so weakly or less than the wild type.

The target in the assay is monoclonal antibody 244-12. The experiment in a line: summary table, column 'binding to cell necrosis-promoting antibodies'.

Regarding “Tumor necrosis factor alpha (TNF) (from UniProt P01375 77-233) (ligand)”, the binding result is given as “binds”. With “polypeptide of SEQ ID NO: 2 (from UniProt P01375 77-233)” the entry was “binds”.
